Holding throughout (test): activity in cells
Data set [1] deals with T1, ASRE(87621) (artificial (Homo sapiens domains)) (UniProt Q14671).
T1 sequence: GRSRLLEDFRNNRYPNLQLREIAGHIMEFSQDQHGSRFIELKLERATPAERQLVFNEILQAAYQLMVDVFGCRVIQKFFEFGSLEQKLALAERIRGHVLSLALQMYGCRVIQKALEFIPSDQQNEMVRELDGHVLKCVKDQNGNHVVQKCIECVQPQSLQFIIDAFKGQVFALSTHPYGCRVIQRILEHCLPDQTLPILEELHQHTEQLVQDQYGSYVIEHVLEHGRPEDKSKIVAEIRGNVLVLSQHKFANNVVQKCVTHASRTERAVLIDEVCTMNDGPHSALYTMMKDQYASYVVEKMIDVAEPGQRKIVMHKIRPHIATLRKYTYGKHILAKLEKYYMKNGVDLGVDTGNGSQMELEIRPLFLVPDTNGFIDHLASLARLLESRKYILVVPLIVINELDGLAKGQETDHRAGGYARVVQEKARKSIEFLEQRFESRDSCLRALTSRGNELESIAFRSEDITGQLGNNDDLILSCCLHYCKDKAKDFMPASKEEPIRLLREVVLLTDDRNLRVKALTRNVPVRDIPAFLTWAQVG
The conditions noted are these: non-specific control ASRE; no comparable silencing; protein in cells; protein details: pET43.1b Nus/His, fusion to SMG6 PIN domain.

Data set [2] concerns the target T2, ASRE(LacZ) (artificial (Homo sapiens domains)) (UniProt Q14671).
T2 sequence: T1 sequence with E40Q, C108S, Q112E, N252S, Q256E, S295N, E299Q
The conditions noted are these: lacZ mRNA and beta-galactosidase decreased in E. coli; 5 mM Mn2+; protein in cells; protein details: pET43.1b Nus/His, fusion to SMG6 PIN domain.

Data set [3] concerns the target T3, mitoASRE(ND5) (artificial (Homo sapiens domains)) (UniProt Q14671).
T3 sequence: T1 sequence with C72N, R73Y, C108S, Q112E, S216N, E220Q, S295N, E299Q
The conditions noted are these: tetracycline-induced 293 stable cells, 24 h; protein in cells.

Substitutions are numbered along the chain they refer to. For part of these data: A negative result means that nothing was seen under these conditions. Protein sequences can lack the tags named with them. For part of these data: For at least one entry, the source does not settle the construct or the ends of the probe.

On to UGGAUGAA [lacZ mRNA site], for which the functional effect result in data set [1] is recorded as “not active”; in data set [2], “active”.
In the case of UUUAUGUG [mtND5 mRNA site], the functional effect (% mRNA decrease) in data set [3] came out at 70.

The values are drawn from patent publication US20130129701, “Methods and Compositions for Sequence Specific RNA Endonucleases” (published 2013).
